The list shows a part of the results, in another mix than the full data.

By UniProt entry, the sequences of proteins in these tests, tags left out. Where a name states a change or a piece, a line headed by the entry shows the natural chain unless it says otherwise.
UniProt Q92530: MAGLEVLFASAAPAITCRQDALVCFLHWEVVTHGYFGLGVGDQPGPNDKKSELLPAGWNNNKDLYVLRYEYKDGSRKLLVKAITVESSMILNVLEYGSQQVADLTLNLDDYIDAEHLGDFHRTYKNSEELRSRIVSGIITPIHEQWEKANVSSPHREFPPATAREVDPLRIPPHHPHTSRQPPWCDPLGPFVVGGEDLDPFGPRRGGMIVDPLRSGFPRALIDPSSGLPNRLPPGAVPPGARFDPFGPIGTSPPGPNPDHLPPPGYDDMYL
UniProt Q8NBU5: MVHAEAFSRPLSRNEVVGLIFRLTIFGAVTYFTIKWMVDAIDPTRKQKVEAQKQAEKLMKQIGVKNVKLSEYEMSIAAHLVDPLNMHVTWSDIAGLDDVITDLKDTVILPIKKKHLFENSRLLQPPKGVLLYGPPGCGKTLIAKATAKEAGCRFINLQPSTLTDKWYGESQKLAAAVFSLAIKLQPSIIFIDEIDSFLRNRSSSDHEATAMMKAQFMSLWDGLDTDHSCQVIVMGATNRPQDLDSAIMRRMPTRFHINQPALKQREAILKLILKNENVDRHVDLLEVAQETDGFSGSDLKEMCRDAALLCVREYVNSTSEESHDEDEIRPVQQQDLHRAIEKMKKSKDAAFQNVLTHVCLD
UniProt Q8N3Z6: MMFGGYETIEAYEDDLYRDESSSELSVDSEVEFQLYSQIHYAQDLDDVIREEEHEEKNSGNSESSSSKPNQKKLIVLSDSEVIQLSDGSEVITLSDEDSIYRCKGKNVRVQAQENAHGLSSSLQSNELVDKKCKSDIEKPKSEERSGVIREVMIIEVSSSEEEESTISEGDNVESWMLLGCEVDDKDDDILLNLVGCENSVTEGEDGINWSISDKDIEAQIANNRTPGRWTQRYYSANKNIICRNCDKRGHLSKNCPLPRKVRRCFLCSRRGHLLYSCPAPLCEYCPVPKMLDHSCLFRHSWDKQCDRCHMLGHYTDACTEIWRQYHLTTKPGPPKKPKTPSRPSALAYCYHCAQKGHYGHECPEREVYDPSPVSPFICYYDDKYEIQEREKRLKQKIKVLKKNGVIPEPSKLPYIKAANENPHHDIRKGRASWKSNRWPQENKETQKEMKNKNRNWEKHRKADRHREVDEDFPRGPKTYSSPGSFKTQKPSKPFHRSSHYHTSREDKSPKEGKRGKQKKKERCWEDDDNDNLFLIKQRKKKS
UniProt Q8NEB9, whole entry: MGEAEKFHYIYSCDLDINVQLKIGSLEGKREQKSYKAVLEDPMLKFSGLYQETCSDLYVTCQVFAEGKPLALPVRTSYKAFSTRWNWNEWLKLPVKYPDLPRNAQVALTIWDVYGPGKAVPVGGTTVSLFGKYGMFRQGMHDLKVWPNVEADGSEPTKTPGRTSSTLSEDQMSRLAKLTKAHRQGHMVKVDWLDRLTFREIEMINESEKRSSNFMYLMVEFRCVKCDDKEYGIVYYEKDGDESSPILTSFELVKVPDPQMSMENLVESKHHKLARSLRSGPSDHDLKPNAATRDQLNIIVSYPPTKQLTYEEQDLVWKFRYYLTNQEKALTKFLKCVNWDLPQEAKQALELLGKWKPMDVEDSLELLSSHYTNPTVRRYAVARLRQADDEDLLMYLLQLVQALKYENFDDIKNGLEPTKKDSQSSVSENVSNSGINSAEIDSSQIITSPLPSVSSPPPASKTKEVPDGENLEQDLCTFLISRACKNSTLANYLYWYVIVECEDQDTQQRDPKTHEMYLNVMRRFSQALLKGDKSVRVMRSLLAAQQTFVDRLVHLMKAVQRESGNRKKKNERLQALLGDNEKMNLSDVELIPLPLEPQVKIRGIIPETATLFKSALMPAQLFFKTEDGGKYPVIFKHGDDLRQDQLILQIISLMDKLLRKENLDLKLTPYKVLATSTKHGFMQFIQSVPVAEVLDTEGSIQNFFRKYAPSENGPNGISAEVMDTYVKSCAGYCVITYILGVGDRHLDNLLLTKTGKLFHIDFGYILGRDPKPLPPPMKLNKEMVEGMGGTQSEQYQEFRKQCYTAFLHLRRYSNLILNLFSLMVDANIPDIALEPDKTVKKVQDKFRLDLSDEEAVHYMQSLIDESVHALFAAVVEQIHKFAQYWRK
UniProt Q8WXI9: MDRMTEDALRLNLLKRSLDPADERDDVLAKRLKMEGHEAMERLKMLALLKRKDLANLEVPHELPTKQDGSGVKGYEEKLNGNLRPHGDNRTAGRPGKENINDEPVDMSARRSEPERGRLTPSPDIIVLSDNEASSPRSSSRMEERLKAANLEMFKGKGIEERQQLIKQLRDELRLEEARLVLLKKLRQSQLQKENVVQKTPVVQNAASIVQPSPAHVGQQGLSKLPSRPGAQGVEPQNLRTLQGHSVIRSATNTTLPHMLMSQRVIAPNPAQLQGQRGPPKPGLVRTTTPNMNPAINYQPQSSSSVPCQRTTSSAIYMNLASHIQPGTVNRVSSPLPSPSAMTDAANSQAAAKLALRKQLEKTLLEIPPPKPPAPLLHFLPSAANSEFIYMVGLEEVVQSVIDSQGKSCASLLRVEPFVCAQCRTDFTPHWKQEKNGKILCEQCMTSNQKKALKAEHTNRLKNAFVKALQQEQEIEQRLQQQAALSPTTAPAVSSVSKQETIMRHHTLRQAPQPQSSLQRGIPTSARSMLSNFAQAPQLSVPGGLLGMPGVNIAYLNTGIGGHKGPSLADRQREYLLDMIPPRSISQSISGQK
UniProt Q8WZ64: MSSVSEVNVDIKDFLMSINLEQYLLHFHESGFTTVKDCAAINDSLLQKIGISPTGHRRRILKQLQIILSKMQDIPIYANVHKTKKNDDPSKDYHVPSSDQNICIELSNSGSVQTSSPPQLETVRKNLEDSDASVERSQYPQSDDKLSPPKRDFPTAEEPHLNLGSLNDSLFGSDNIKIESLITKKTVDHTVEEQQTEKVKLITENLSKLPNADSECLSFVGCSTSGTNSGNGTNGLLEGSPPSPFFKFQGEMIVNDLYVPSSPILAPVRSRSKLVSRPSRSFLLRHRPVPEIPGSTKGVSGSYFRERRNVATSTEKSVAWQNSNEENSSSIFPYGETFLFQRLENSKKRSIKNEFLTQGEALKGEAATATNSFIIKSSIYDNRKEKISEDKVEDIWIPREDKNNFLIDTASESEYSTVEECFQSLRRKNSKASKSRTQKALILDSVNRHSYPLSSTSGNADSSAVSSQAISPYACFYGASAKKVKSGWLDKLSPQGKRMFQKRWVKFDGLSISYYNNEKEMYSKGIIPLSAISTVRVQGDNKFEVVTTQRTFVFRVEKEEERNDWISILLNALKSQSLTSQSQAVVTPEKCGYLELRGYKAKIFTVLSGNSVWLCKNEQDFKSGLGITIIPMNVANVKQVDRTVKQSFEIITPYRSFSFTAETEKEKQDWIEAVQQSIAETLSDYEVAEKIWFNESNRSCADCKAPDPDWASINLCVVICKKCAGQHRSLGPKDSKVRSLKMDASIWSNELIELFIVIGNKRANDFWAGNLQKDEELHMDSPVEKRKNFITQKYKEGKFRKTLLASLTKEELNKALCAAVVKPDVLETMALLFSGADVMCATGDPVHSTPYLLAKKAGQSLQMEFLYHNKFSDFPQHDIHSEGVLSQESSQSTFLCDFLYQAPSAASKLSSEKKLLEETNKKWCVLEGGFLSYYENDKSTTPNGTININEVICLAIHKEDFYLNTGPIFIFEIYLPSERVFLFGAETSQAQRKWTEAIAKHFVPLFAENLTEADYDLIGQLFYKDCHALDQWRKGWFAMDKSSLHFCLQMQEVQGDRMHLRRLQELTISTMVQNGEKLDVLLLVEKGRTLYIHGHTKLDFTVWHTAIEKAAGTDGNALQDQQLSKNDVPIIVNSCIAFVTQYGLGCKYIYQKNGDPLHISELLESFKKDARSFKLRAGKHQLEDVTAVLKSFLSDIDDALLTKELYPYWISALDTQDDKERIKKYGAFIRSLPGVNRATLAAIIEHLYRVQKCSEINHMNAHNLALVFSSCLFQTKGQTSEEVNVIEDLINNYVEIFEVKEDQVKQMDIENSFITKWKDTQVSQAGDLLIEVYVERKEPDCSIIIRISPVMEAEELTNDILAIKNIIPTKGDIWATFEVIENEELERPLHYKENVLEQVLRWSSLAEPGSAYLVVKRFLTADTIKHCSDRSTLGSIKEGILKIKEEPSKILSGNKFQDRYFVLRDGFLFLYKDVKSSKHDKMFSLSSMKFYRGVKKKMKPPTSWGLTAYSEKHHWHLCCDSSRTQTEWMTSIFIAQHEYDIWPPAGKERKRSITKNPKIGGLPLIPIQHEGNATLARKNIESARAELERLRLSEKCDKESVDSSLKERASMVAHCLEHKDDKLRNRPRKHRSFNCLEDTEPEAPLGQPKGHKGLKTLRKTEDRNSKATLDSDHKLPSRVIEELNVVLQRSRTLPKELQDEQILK
UniProt Q8NDD1: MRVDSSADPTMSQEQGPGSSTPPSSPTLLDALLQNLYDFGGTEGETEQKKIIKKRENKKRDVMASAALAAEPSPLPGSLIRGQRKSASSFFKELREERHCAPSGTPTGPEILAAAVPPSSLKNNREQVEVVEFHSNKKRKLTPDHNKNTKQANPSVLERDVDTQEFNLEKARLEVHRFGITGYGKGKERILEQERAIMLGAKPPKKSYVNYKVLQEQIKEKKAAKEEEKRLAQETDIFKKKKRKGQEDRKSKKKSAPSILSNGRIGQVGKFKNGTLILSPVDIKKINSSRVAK
UniProt Q8NI36: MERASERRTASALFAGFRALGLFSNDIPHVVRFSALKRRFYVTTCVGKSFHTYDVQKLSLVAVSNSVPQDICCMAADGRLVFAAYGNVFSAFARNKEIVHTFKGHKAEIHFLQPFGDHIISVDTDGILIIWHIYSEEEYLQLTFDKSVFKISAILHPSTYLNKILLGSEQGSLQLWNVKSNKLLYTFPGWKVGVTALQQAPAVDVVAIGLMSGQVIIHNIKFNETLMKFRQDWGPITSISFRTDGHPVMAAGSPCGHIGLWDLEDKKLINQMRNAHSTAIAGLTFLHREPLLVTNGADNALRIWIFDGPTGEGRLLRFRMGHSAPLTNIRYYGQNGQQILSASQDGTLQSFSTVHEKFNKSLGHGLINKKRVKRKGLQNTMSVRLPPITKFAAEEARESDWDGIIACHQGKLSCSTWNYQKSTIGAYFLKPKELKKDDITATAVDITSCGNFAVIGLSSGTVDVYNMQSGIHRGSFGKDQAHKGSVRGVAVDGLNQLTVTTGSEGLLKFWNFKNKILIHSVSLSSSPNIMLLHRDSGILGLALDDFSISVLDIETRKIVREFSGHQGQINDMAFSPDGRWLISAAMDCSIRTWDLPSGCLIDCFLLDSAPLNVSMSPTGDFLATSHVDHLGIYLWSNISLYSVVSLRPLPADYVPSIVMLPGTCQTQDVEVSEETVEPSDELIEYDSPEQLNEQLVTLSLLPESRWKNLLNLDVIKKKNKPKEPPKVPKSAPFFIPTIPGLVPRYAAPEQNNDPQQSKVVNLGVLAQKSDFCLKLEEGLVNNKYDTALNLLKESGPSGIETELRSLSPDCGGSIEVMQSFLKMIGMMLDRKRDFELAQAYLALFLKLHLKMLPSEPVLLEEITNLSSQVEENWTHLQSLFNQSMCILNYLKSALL
UniProt Q8NDX6: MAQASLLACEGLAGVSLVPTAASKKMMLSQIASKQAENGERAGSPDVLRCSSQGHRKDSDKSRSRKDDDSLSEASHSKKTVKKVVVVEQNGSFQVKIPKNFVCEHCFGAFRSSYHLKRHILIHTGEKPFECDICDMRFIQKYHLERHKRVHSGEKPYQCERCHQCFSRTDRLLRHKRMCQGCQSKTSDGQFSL
UniProt Q8NFI3: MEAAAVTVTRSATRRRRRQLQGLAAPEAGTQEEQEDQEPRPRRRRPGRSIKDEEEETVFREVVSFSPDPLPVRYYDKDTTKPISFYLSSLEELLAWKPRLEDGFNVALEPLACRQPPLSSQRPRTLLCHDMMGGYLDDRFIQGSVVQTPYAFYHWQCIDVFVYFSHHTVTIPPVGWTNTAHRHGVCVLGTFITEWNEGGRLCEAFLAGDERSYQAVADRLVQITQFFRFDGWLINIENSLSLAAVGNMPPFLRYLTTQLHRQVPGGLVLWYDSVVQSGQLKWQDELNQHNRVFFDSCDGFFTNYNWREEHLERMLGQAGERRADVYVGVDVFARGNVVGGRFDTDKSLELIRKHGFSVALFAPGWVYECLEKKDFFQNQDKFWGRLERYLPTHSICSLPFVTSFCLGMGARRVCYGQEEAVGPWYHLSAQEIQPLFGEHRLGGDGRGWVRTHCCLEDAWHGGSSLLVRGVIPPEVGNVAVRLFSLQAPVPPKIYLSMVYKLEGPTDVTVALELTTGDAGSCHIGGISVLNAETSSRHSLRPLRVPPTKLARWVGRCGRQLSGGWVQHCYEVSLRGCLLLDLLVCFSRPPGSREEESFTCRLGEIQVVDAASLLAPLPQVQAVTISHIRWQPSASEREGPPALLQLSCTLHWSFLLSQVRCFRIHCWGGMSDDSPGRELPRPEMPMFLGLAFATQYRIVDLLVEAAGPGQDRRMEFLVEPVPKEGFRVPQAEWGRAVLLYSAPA

Compound in the assay: COC(=O)C#Cc1ccccc1 [methyl 3-phenylpropiolate]
In words: log2 ratio of iodoacetamide-alkyne labeling of the cysteine site, DMSO over compound (competition); higher = stronger covalent engagement of the cysteine by the compound, active = 1 or more. The following applies: 500 µM; treatment time 1 h; system: HEK293T cell lysate. The method in brief:
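HEK293T lysate (2 mg/mL) was treated with DMSO or electrophile (500 µM, 1 h, ambient temperature), then iodoacetamide alkyne (1 h), clicked to sCIP-TMT reagents, pooled, trypsin-digested overnight at 37 °C, streptavidin-enriched and acid-eluted. Peptides were run on Orbitrap Eclipse LC-MS/MS with FAIMS and quantified in FragPipe. The log2 competition ratio per cysteine is mean control-channel over mean compound-channel reporter intensity. Duplicate channels and three replicates were used, and cysteines quantified in only one replicate were excluded.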
As to PSMF1 C185 (UniProt Q92530), the “log2 ratio of iodoacetamide-alkyne labeling” value (“log2 ratio” below) was inactive: 0.258.

With UniProt Q8WYQ9_C362, the “log2 ratio” value is inactive: 0.818.

For the target SEC14L1 C258 (UniProt Q92503), the “log2 ratio” value is inactive: 0.208.

Turning to UniProt Q8NBU5_C303, the “log2 ratio” value was inactive: 0.133.

On to NOC3L C683 (UniProt Q8WTT2), for which the “log2 ratio” value is inactive: 0.191.

As for CXorf38 C300 (UniProt Q8TB03), the “log2 ratio” value is inactive: 0.0233.

Take NPLOC4 C355 (UniProt Q8TAT6): the “log2 ratio” value was inactive: 0.0783.

As to NEDD1 C541 (UniProt Q8NHV4), the “log2 ratio” value was inactive: 0.0315.

ZCCHC7 C524 (UniProt Q8N3Z6): the “log2 ratio” value is inactive: 0.124.

With LRRC47 C164 (UniProt Q8N1G4), the “log2 ratio” value is inactive: -0.114.

Consider PDCD6IP C512 (UniProt Q8WUM4), for which the “log2 ratio” value is inactive: 0.272.

Turning to TRUB1 C249 (UniProt Q8WWH5), the “log2 ratio” value is inactive: 0.0333.

In the case of WDTC1 C312 (UniProt Q8N5D0), the “log2 ratio” value is inactive: 0.954.

Consider UniProt Q8NEB9_C336, for which the “log2 ratio” value was inactive: 0.145.

As for UniProt Q8NFC6_C2570, the “log2 ratio” value is inactive: 0.348.

With PPHLN1 C446 (UniProt Q8NEY8), the “log2 ratio” value is inactive: 0.117.

SIRT6 C18 (UniProt Q8N6T7): the “log2 ratio” value is inactive: 0.0448.

For MRPL43 C91 (UniProt Q8N983), the “log2 ratio” value was inactive: 0.196.

Take LRRC47 C249 (UniProt Q8N1G4): the “log2 ratio” value is inactive: 0.221.

With GATAD2B C423 (UniProt Q8WXI9), the “log2 ratio” value was inactive: 0.12.

With NAT14 C108 (UniProt Q8WUY8), the “log2 ratio” value is active: 1.05.

For RAPGEF6 C1293 (UniProt Q8TEU7), the “log2 ratio” value was inactive: 0.707.

Regarding UniProt Q8WZ64_C1635, the “log2 ratio” value is inactive: 0.472.

As for NUDT8 C224 (UniProt Q8WV74), the “log2 ratio” value was inactive: 0.747.

Take C1orf131 C100 (UniProt Q8NDD1): the “log2 ratio” value is inactive: 0.391.

XRN1 C132 (UniProt Q8IZH2): the “log2 ratio” value is inactive: 0.261.

Regarding WDR36 C866 (UniProt Q8NI36), the “log2 ratio” value is inactive: 0.645.

UniProt Q8TEJ3_C428: the “log2 ratio” value was inactive: 0.351.

With GADD45GIP1 C124 (UniProt Q8TAE8), the “log2 ratio” value is inactive: 0.294.

For OTUD6B C292 (UniProt Q8N6M0), the “log2 ratio” value was inactive: 0.741.

Take NHLRC2 C161 (UniProt Q8NBF2): the “log2 ratio” value is inactive: -0.365.

ZNF740 C9 (UniProt Q8NDX6): the “log2 ratio” value was inactive: 0.549.

With NEK7 C53 (UniProt Q8TDX7), the “log2 ratio” value is inactive: 0.143.

Consider UniProt Q8NFC6_C1554, for which the “log2 ratio” value was inactive: 0.394.

Consider ENGASE C113 (UniProt Q8NFI3), for which the “log2 ratio” value was inactive: 0.206.

For the target UniProt Q8N163_C644, the “log2 ratio” value was inactive: 0.00523.

With DMXL2 C1833 (UniProt Q8TDJ6), the “log2 ratio” value is inactive: 0.0945.

Source of the values: the supplement of paper PMC11006884.
